Data: patent publication US20020038016

Chains of the proteins cited; added tags and fusions are not shown. Lines headed by an entry give the natural chain unless they say otherwise; changes in a name come on top.
UniProt P07659: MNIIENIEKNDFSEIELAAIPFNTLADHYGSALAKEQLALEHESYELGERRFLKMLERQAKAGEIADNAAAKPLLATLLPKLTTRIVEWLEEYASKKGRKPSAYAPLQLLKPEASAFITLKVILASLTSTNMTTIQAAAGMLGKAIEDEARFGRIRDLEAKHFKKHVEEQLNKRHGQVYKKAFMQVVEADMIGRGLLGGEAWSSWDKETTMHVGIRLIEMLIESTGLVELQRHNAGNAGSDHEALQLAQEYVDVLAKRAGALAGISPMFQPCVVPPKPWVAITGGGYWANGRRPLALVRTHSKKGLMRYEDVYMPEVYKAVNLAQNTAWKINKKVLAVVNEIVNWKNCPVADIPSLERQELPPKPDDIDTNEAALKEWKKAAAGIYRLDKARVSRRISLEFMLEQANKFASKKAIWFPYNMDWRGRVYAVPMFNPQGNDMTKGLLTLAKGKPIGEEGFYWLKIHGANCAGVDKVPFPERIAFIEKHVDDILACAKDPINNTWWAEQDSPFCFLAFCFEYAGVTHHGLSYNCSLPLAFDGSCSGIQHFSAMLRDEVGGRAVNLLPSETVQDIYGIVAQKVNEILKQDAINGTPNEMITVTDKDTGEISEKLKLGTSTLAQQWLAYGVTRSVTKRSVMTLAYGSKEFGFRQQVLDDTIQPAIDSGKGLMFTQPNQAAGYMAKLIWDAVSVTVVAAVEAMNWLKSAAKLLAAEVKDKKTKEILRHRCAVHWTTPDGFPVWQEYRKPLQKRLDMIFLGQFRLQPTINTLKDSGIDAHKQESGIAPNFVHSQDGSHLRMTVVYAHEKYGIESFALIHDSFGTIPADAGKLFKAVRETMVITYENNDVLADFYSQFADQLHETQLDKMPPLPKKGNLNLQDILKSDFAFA
UniProt P00573: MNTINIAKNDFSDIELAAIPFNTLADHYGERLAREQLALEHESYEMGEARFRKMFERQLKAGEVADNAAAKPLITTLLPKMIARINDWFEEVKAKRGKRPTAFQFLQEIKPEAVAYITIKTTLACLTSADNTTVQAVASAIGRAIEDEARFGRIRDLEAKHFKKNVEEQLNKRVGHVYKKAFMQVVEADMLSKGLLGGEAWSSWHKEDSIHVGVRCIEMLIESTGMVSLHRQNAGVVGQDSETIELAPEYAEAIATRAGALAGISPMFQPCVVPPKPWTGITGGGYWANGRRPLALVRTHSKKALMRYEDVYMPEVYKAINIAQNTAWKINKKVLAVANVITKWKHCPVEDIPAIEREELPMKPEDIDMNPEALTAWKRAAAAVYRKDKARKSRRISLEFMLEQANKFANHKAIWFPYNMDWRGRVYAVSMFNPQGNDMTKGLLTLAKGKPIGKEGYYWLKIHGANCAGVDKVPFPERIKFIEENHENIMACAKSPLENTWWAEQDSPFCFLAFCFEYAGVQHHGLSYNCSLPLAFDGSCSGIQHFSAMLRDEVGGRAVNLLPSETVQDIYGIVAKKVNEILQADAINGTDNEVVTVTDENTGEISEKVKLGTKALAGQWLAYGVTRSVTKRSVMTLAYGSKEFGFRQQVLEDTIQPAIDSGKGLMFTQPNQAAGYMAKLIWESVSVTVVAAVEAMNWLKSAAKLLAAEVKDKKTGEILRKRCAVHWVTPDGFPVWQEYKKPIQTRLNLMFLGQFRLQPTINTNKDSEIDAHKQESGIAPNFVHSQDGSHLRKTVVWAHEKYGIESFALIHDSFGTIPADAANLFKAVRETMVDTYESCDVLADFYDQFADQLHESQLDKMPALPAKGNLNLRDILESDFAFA

Legend:
[1] = target: T3 RNA polymerase (UniProt P07659); test: activity assay; conditions: 3' n-propyl block, 49% without decoy, purified recombinant protein, protein details: Epicentre Technologies, single-stranded DNA
[2] = target: T7 RNA polymerase (UniProt P00573); test: activity assay; conditions: 3' n-propyl block, purified recombinant protein, protein details: Epicentre Technologies, single-stranded DNA

**Q.** Which results are given for “GTACTCAGATGCTGCACTGAAATTATTAACCCTCACTAAAGGGATATAA [decoy probe SEQ 8 (T3 promoter sequence)]”?
**A.** activity on this sequence (% positive amplifications) ([1]; indirect: T3 TAA with RT): 65; activity on this sequence (% positive amplifications) ([2]; indirect: T7 TAA with RT, 67% without decoy, no enhancement): 58

**Q.** How did the activity on this sequence (% positive amplifications) ([2]; indirect: T7 TAA with RT, 59% without decoy) turn out when “GAAATCAATTCGACTCACTAAAGGGATATAA [decoy probe SEQ 13 (truncated SEQ 10)]” was run?
**A.** Its activity on this sequence (% positive amplifications) is 69.

**Q.** Which activity on this sequence (% positive amplifications) ([1]; indirect: T3 TAA with RT) does the source give for “GTACTCAGATGCTGTCACTGATCATAATACGACTCACTATAGGGAGATAA [decoy probe SEQ 9 (T7 consensus promoter)]” here?
**A.** The activity on this sequence (% positive amplifications) was 73.

**Q.** What about the activity on this sequence (% positive amplifications) ([2]; indirect: T7 TAA with RT, 67% without decoy) of the same sequence?
**A.** Its activity on this sequence (% positive amplifications) is 79.

**Q.** Which results are given for “GTACTCAGATGCTGTCACTGATCAGTACTCAGATGCTGTGATGCACTGATCAAA [decoy probe SEQ 14 (random sequence)]”?
**A.** activity on this sequence (% positive amplifications) ([1]; indirect: random control, no enhancement): 50; activity on this sequence (% positive amplifications) ([2]; indirect: random control, 67% without decoy, no enhancement): 46
